Source: publication PMC7804152, “Structural basis for the multi-activity factor Rad5 in replication stress tolerance”
For part of these data: No signal at the amounts used counts as a negative. Protein sequences can lack the tags named with them. For part of these data: The comparison behind a weaker result is the experiment's own reference, which may not be listed here. For part of these data: The exact form of at least one protein or probe is not confirmed. For part of these data: At least one verdict was read from the data and is not stated in words by the source.

Key:
[1] = molecular target: T1, KlHIRAN (Kluyveromyces lactis) (UniProt Q6CJM4); assay: fluorescence polarization; conditions: 50 mM NaCl; FP: 20 mM Tris pH 7.5, 50 mM (dsDNA, KlHIRAN) or 70 mM (ssDNA) NaCl, 2 mM MgCl2, 1 nM DNA, room temp; recombinant protein; residues 174-341; protein details: intein-CBD cleaved off; label: 5'-FAM on D3a
T1 sequence (looked up): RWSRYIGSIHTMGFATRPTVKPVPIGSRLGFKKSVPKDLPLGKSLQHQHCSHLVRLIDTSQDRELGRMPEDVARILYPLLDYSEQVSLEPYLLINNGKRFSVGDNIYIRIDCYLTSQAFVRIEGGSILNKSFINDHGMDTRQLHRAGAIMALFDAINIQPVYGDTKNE

[2] = molecular target: T2, HLTF (Homo sapiens) (UniProt Q14527); assay: pull-down; conditions: 100 mM salt, free 3'-OH required; pull-down: 20 mM Tris pH 7.5, 50 mM NaCl, 4 C; recombinant protein; protein details: His (pET28a); label: 3'-biotin; single-stranded DNA
T2 sequence (looked up, limits assumed): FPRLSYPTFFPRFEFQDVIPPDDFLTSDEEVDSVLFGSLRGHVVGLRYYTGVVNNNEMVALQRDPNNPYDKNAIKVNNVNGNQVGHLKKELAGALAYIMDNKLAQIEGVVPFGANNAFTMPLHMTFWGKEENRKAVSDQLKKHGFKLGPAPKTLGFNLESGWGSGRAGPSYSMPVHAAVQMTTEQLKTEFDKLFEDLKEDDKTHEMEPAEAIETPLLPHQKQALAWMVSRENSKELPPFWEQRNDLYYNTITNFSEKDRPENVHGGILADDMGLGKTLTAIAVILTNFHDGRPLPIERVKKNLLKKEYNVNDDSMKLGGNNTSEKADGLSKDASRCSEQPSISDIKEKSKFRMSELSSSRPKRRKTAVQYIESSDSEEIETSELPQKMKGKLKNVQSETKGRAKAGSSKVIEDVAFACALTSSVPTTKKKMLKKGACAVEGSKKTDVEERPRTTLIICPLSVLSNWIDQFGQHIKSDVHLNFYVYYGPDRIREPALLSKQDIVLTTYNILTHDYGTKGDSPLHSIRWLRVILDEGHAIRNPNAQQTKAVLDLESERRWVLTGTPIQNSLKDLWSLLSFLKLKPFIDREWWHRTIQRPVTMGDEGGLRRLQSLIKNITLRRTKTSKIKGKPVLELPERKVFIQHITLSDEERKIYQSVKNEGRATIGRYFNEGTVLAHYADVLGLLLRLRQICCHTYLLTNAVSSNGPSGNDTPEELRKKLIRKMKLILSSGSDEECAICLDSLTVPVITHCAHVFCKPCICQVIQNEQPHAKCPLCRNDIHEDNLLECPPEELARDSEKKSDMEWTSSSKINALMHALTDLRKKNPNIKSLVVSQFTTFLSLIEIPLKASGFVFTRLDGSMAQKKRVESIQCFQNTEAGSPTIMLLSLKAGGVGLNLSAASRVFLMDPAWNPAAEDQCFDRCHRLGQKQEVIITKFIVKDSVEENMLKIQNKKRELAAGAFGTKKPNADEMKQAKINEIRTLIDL

[3] = molecular target: T3, KlRad5 (Kluyveromyces lactis) (UniProt Q6CJM4); assay: fluorescence polarization; conditions: 70 mM NaCl; FP: 20 mM Tris pH 7.5, 50 mM (dsDNA, KlHIRAN) or 70 mM (ssDNA) NaCl, 2 mM MgCl2, 1 nM DNA, room temp; recombinant protein; residues 163-1114; label: 5'-FAM; single-stranded DNA
T3 sequence (looked up): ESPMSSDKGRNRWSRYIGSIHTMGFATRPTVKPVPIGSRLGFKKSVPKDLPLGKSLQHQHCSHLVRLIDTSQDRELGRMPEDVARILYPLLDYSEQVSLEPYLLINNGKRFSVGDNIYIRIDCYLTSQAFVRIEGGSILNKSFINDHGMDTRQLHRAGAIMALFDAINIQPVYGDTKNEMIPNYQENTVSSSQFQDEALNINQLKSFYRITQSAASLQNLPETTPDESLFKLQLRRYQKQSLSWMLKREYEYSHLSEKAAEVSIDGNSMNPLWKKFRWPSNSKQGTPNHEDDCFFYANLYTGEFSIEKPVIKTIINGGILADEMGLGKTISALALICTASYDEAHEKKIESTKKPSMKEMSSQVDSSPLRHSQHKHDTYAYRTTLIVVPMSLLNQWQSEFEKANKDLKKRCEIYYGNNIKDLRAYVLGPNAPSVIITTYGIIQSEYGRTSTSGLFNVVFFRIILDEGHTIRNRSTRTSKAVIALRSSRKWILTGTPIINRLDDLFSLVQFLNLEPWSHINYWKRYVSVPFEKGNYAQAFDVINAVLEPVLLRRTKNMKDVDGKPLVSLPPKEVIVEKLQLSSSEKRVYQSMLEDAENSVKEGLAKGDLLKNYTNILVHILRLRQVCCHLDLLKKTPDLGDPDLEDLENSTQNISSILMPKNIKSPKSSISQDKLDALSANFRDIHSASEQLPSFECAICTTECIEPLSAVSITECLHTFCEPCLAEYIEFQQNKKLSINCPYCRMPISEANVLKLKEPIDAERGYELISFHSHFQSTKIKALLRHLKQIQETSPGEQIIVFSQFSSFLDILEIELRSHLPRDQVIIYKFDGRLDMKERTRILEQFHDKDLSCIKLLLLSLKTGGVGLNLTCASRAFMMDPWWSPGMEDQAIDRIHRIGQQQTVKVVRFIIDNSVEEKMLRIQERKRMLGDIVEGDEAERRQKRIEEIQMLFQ

## CAACGTCATAGACGATTACATTGCTACATGGAGCTGTCTAGAGGATCCGA (double strand) [D3a/D3b blunt dsDNA]
[1]
  binding result: binds more weakly

## TTTTTTTTTTTTTTTTTTTTTTTTT [dT25, 3'-biotin]
[2]
  binding result: no binding

## TTTTTTTTTTTTTTTTTTTTTTTTT [dT25, 5'-FAM]
[3]
  binding result: binds
